# Library compounds against nucleic acid targets

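Each compound is printed as two spots on a slide made to bind it covalently, so it has no test concentration; the read-out is fluorescence of the bound, labelled oligonucleotide. For the PreQ1, TPP and SAM-II riboswitches the laboratory earlier reported (doi:10.1038/s41467-019-09493-3) 1 µM RNA, 2 h, and a rule that included a mean Z-score above 3 (spot signal-to-noise against the whole library), a score well above that on a control array, and duplicate spots agreeing (coefficient of variation under 100). The data file gives only the calls; its cut-offs may differ, and compounds hitting several targets are kept. A missing hit is not proof of no binding, and a hit is not a measured affinity.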
A compound is marked hit if it was called a hit and no hit if it was screened but was not.
Compounds were drawn at random from those tested, without regard to their results.
A target missing from an entry has no call listed here.

Targets, with sequences 5′ to 3′:
T1: TPP riboswitch RNA three-way junction, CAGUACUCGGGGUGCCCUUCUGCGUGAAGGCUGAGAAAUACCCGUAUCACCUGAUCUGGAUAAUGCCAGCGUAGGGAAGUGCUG. Hit rate about 0.7% of about 24,000 compounds.
T2: SAM-II riboswitch RNA pseudoknot, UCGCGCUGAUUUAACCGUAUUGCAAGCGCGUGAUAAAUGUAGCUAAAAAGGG. Hit rate about 1% of about 21,000 compounds.
T3: PreQ1 riboswitch RNA pseudoknot, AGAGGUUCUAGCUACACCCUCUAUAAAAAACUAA. From B. subtilis. Hit rate about 0.7% of about 24,000 compounds.

For Clc1ccc(-c2csc3ncnc(NCc4ccccc4)c23)cc1 the calls were T1: no hit; T3: no hit.
For O=C(NCCc1cccs1)NCc1cc2n(n1)CCCNC2 the calls were T1: no hit; T2: no hit; T3: no hit.
For N#CC1=C(N)N(c2ccccc2)C2=C(C(=O)CCC2)C1c1ccc(Cl)cc1 (centres unmarked) the calls were T1: no hit; T2: no hit; T3: no hit.
For C1CCc2sc(CCNC3CCOC4(CCOCC4)C3)nc2C1 (centres unmarked) the calls were T1: no hit; T2: no hit; T3: no hit.
For CCCCOCC(O)Cn1c(CO)nc2ccccc21 (centres unmarked) the calls were T1: no hit; T2: no hit; T3: no hit.
For Cl.OC(CN1CCOCC1)CN(c1ccccc1)c1ccccc1 (centres unmarked) the calls were T1: no hit; T2: no hit; T3: no hit.
For COc1ccc(CN2CCCC3(CCC(=O)N(CCCO)C3)C2)cc1F (centres unmarked) the calls were T1: no hit; T2: no hit; T3: no hit.
For N#Cc1c(-c2ccccc2)cn(-c2cc(F)cc(F)c2)c1N the calls were T1: no hit; T2: no hit; T3: no hit.
For CCOC(=O)c1c(N)sc(C(=O)N2CCc3ccccc3C2)c1C the calls were T1: no hit; T2: no hit; T3: no hit.
For CCCCN(Cc1cccnc1)C(=O)c1ccccc1C1CCNC1 (centres unmarked) the calls were T1: no hit; T2: no hit; T3: no hit.
For CC1C(C#N)=C(N)OC2=C1C(=O)CC(c1ccccc1)C2 (centres unmarked) the calls were T1: no hit; T2: no hit; T3: no hit.
For Cc1cccc(-c2nn3c(NCC(C)C)cc(C)nc3c2C)c1 the calls were T1: no hit; T3: no hit.
For CCCCCN[C@H]1CS(=O)(=O)C[C@@H]1S(=O)(=O)c1ccc(F)cc1 the calls were T1: no hit; T3: no hit.
For COc1ccc(C[C@@H](C)[C@@H](C)Cc2ccc(OC)c(OC)c2)cc1OC the calls were T1: no hit; T2: no hit; T3: no hit.
For COc1ccc(CN2CCC3(CC2)OCCCC3O)cc1C(=O)O (centres unmarked) the calls were T1: no hit; T2: no hit; T3: no hit.
For Cc1cc(N2CCN(C)CC2)n2nc(-c3ccc(Cl)cc3)nc2n1 the calls were T1: no hit; T2: no hit; T3: no hit.
For CCn1c(C(=O)O)c(CNCC(C)c2ccccc2)c2ccc(OC)cc21 (centres unmarked) the calls were T1: no hit; T3: no hit.
For CCCCC[C@H](O)C=C[C@H]1[C@H](O)CC(=O)[C@H]1CC=CCCCC(=O)O the calls were T1: no hit; T2: no hit; T3: no hit.
For COC(=O)c1cc(N)c2c(c1)Oc1ccccc1O2 the calls were T1: no hit; T2: no hit; T3: no hit.
For CCN1CCCC1CNCc1cccc(OCc2ccc(Cl)cc2)c1 (centres unmarked) the calls were T1: hit; T2: no hit; T3: no hit.
For O=C(c1ccc(Cn2cnnn2)cc1)N1CCC2(CC1)[C@H](O)C[C@@H]2OCCO the calls were T1: no hit; T2: no hit; T3: no hit.
For CCOc1ccc(Nc2c(-c3ccc(C)cc3)c(=O)c2=O)cc1 the calls were T1: no hit; T3: no hit.
For COC(=O)c1c(NC(=O)NCCCO)sc2c1CCC2 the calls were T1: no hit; T2: no hit; T3: no hit.
For COc1ccccc1NC(=O)c1sc2nc3c(cc2c1N)CN(Cc1ccccc1)CC3 the calls were T1: no hit; T2: no hit; T3: no hit.
For Cn1c2c(cc(C(=O)NC[C@@H]3C[C@H](F)CN3)c1=O)CCCC2 the calls were T1: no hit; T2: no hit; T3: no hit.
For Cc1ccccc1Cc1nc(C2CCOC2)nn1CCO (centres unmarked) the calls were T1: no hit; T2: no hit; T3: no hit.
For Cc1cnc(C(=O)N2CC[C@@](C)(O)[C@@H](O)C2)cn1 the calls were T1: no hit; T2: no hit; T3: no hit.
For Cc1cccc(-c2nn(C(=S)Nc3ccccc3)cc2-c2ccnc3ccccc23)n1 the calls were T1: no hit; T2: no hit; T3: no hit.
For Cc1ccc2nc(-c3ccc(NC4=NS(=O)(=O)c5ccccc54)cc3)sc2c1 the calls were T1: no hit; T2: no hit; T3: no hit.
For Cc1nnsc1C(=O)N1CCc2nc(N)nc(N3CC=CC3)c2CC1 the calls were T1: no hit; T2: no hit; T3: no hit.
For CC(C)(C)Cn1c(N)nc2ccc(-c3[nH]c(C(C)(C)C)nc3-c3ccc(F)cc3)nc21 the calls were T1: no hit; T2: no hit; T3: no hit.
For Cc1ccc(OCCCN(C)C(=O)C2CCNCC2)cc1C the calls were T1: no hit; T2: no hit; T3: no hit.
For CCOC(=O)C1=C(C)OC(N)=C(C#N)C12C(=O)Nc1ccccc12 (centres unmarked) the calls were T1: no hit; T2: no hit; T3: no hit.
For C=CCc1cc(C(=O)N2CCC3(CC2)[C@H](O)C[C@]3(C)OC)ccc1OC the calls were T1: no hit; T2: no hit; T3: no hit.
For CCOC(=O)c1cnc2c(Cl)cccc2c1N the calls were T1: no hit; T2: no hit; T3: no hit.
For O=C1CC(NC2CCCCC2)C(=O)N1c1cccc(C(F)(F)F)c1 (centres unmarked) the calls were T1: no hit; T2: no hit; T3: no hit.
For NC(=O)c1cccc(N2CCN(Cc3ccco3)CC(O)C2)n1 (centres unmarked) the calls were T1: no hit; T2: no hit; T3: no hit.
For COc1cc2ncnc(Nc3ccc(F)c(Cl)c3)c2cc1NC(=O)C=CCN1CCCCC1 the calls were T1: no hit; T2: no hit; T3: no hit.
For CCc1nc(C)sc1CNC(=O)C(N)c1c(C)n[nH]c1C (centres unmarked) the calls were T1: no hit; T2: no hit; T3: no hit.
For O=C(COCc1ccccc1)N[C@@H]1CCNC[C@H]1O the calls were T1: no hit; T2: no hit; T3: no hit.
For Cc1ccc(CNc2ncnc3sc4c(c23)CCCC4)cc1 the calls were T1: no hit; T3: no hit.
For Cc1ccc(Nc2c(-c3cccnc3)nc3cc(C)ccn23)cc1 the calls were T1: no hit; T2: no hit; T3: no hit.

Some entries from above, unchanged:

{"structure": "COc1ccc(C[C@@H](C)[C@@H](C)Cc2ccc(OC)c(OC)c2)cc1OC", "T1": "no hit", "T2": "no hit", "T3": "no hit"}
{"structure": "Cc1ccc2nc(-c3ccc(NC4=NS(=O)(=O)c5ccccc54)cc3)sc2c1", "T1": "no hit", "T2": "no hit", "T3": "no hit"}
{"structure": "Cc1ccc(CNc2ncnc3sc4c(c23)CCCC4)cc1", "T1": "no hit", "T3": "no hit"}
{"structure": "Cc1ccccc1Cc1nc(C2CCOC2)nn1CCO", "stereo": "centres unmarked", "T1": "no hit", "T2": "no hit", "T3": "no hit"}

From ROBIN, a set of small-molecule microarray screens (doi:10.1002/anie.202211358).